# Reference: article PMC7819943, “Rice protein-binding microarrays: a tool to detect cis-acting elements near promoter regions in rice”
# By UniProt entry, the sequences of proteins in these tests, tags left out.
# UniProt Q0JBA9, entry or part of it: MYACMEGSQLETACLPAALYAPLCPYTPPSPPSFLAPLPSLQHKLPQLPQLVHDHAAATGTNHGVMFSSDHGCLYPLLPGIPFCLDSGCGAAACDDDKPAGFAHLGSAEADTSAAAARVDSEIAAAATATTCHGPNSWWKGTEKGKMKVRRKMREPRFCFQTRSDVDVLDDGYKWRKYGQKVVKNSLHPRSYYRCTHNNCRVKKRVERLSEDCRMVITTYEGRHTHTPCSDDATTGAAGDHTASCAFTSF
# The list shows a part of the results.
# Target: OsWRKY34 (Oryza sativa, UniProt Q0JBA9 1-250)
# Test: protein-binding microarray (RPBM); PBS, 2% BSA, 51.3 ng/ul salmon testes DNA, 50 uM zinc acetate, 200 nM TF, 25 C, 1 h; high values mean tight binding
# Conditions: protein: recombinant; tags: N-terminal polyhistidine and DsRed monomer fusion (pET32a); label: CyDye5-dUTP incorporated in the synthesized complementary strand; 3' TTTTT single-stranded linker to array surface; dsDNA, one strand shown
# In short: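 The binding signal for each feature is its fluorescence intensity in arbitrary units. An Axon 4000B scanner was used to read a custom Agilent array that had been made double-stranded with Cy5-dUTP primer extension, blocked with 2% BSA, incubated at 25 °C for 1 h with 200 nM protein in PBS, 2% BSA, salmon testes DNA and 50 µM zinc acetate, and washed. The protein was an N-terminal polyhistidine–DsRed transcription factor fusion from E. coli BL21-CodonPlus, purified on Ni–NTA.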
row,Sequence,binding signal
1,AACAATACGGGAAAAATTGCTTTTACTACCTTCCCATCCTCGGAGTCACCTAGTGCAG,8690 fluorescence intensity (a.u.)
2,AATATAACACCATACTTGGCTGCTGGGTTGGGTTGGAGTACGGAGTCACCTAGTGCAG,12700 fluorescence intensity (a.u.)
3,TGTGGATTTGAATTGTTATGGATTTGAGATTTGGGGATGTCGGAGTCACCTAGTGCAG,13400 fluorescence intensity (a.u.)
4,CTTTTATTTAACGGATGTTTCACCATGGTCTTTACTGTAGCGGAGTCACCTAGTGCAG,9320 fluorescence intensity (a.u.)
5,CTCTTGAGTTGACCGTTGTCCGTTGATCGAGTTGTTGATGCGGAGTCACCTAGTGCAG,9960 fluorescence intensity (a.u.)
6,CTCCATTGTGCTATACTATCACTGCCTTCGCGTGTTTCTTCGGAGTCACCTAGTGCAG,8920 fluorescence intensity (a.u.)
7,AGCCGCCACTAGATCTCGCCACCATCACCGACGACGGCGACGGAGTCACCTAGTGCAG,8530 fluorescence intensity (a.u.)
8,CGTGGTCTCTAATTTGTTTTGTTCGTTCTCCTTTCTTGTTCGGAGTCACCTAGTGCAG,15000 fluorescence intensity (a.u.)
9,ACAACCGCACATACGCCACGGCCCACTCCTCCTTCTCGCCCGGAGTCACCTAGTGCAG,9350 fluorescence intensity (a.u.)
10,TTATTTTGGTTGTATTGACCGACACGAGCCTTTTGTTGACCGGAGTCACCTAGTGCAG,8720 fluorescence intensity (a.u.)
11,TGTATAGGCGGTCCCAGTTTGCATTGGTTTTAGTAGTTGACGGAGTCACCTAGTGCAG,9200 fluorescence intensity (a.u.)
12,TCATAGACATTTTTGTAGTTTTGTCAGCAATTCTTTTATTCGGAGTCACCTAGTGCAG,8080 fluorescence intensity (a.u.)
13,GTCTCCAAGTTTTTTTTTTCTCTCTCTCTTTGTCGCCGTTCGGAGTCACCTAGTGCAG,8130 fluorescence intensity (a.u.)
14,CCCTTTTATCCTCAGTGGCTTGCCTGGTCATATTTCCATACGGAGTCACCTAGTGCAG,10600 fluorescence intensity (a.u.)
15,CGTTGTACGTCCAATCTTGACTGGTGCCGCGGCACCGCTGCGGAGTCACCTAGTGCAG,8160 fluorescence intensity (a.u.)
16,TTCTTATCCACACTGCCCGAGTCATCGTTCTTATCCATTCCGGAGTCACCTAGTGCAG,10000 fluorescence intensity (a.u.)
17,CTTGCACCATCACTTCATCCTCCCGGCGTGCTCGCGTGGCCGGAGTCACCTAGTGCAG,9310 fluorescence intensity (a.u.)
18,ACCTTGGACAACTGACTTCTCTACAGACATTAACCTTTTTCGGAGTCACCTAGTGCAG,8730 fluorescence intensity (a.u.)
19,TACATACGGCAGTCGTTGACCATATGAGAGCATTATCTCACGGAGTCACCTAGTGCAG,10100 fluorescence intensity (a.u.)
20,ACAATTAATATTTTTGCTGGTACTGTCAGTTGTTTGTTTTCGGAGTCACCTAGTGCAG,8530 fluorescence intensity (a.u.)
21,AGCCATCTTAAGTTAGGAACAGTTTCTTTTTTTAGAACTACGGAGTCACCTAGTGCAG,8290 fluorescence intensity (a.u.)

# Copied from the list:
# Value for CCCTTTTATCCTCAGTGGCTTGCCTGGTCATATTTCCATACGGAGTCACCTAGTGCAG under binding signal: 10600 fluorescence intensity (a.u.)
# Value for TTATTTTGGTTGTATTGACCGACACGAGCCTTTTGTTGACCGGAGTCACCTAGTGCAG under binding signal: 8720 fluorescence intensity (a.u.)

# The listing continues:

row,Sequence,binding signal
1,TCTGTATATATTACTACTTGCGTTTCTCTTTCTTTCTTCCCGGAGTCACCTAGTGCAG,11000 fluorescence intensity (a.u.)
2,CCACCACTCCTCGTCCCCTCCTCCACTTCCACTTCCACACCGGAGTCACCTAGTGCAG,9550 fluorescence intensity (a.u.)
3,TCCCTTCAAATATTGTTTTTCTTTTAACACTCAATCTCTCCGGAGTCACCTAGTGCAG,8940 fluorescence intensity (a.u.)
4,AGGACTTGGTAAGGTAGGTAGAAGTAGTATCATGTTTACTCGGAGTCACCTAGTGCAG,8080 fluorescence intensity (a.u.)
5,CCACCCTTTTTCTCTGCTTCCAGTGTACGTTTTCGAATAACGGAGTCACCTAGTGCAG,9880 fluorescence intensity (a.u.)
6,ACTGCTCGATTAATTGGTACTGATACTGTCCGCTCCATGACGGAGTCACCTAGTGCAG,9520 fluorescence intensity (a.u.)
7,TTTATGCTTTCAGTAGAAGTGTATTGTGGTTAGGGTTTTACGGAGTCACCTAGTGCAG,10200 fluorescence intensity (a.u.)
8,ACTGTAAAATCACAAGTACAGATCTATCTAAAATCACTTTCGGAGTCACCTAGTGCAG,8490 fluorescence intensity (a.u.)
9,GAGCATATTTATTTACATTATTTTCATACCATATTATTTTCGGAGTCACCTAGTGCAG,10800 fluorescence intensity (a.u.)
10,CACTTTGCATGTTATAATTGGGTGGGTAGCGGCCGACCTCCGGAGTCACCTAGTGCAG,15000 fluorescence intensity (a.u.)
11,GAACAGGTTAACAAATTTGTCTGCACTTTTTGTCTATTTTCGGAGTCACCTAGTGCAG,9870 fluorescence intensity (a.u.)
12,GTCCTTGACGCCCTGCACGTAGCTGGCCGCCTTCTTGTCCCGGAGTCACCTAGTGCAG,10400 fluorescence intensity (a.u.)
13,CTCGATTACCTGCCTAGTGGCCGCAATTATTGGCCCTTAACGGAGTCACCTAGTGCAG,11100 fluorescence intensity (a.u.)
14,CATACATGCATATAGACCATTAACTATGATCTCTTCTCCACGGAGTCACCTAGTGCAG,8180 fluorescence intensity (a.u.)
15,TGTTTTTTCATTAATCTACATTTTCTACTTCTAATGAATCCGGAGTCACCTAGTGCAG,8060 fluorescence intensity (a.u.)
16,ATTCAAATGGCCATACTGTTCTCTTGCCATCCTCTACCTGCGGAGTCACCTAGTGCAG,9870 fluorescence intensity (a.u.)
17,CTCGATGTTTCCGGCCCAACCTTTGGCCCGCGGAGCACCGCGGAGTCACCTAGTGCAG,8110 fluorescence intensity (a.u.)
18,GGTGTGTGGCCGGTCTGACCGGCAGAGTCCGAGCCTGAGTCGGAGTCACCTAGTGCAG,8580 fluorescence intensity (a.u.)
19,CCTCTCTATACACCCTCCCACTTGCTCCATTCCTTTCTAACGGAGTCACCTAGTGCAG,8550 fluorescence intensity (a.u.)
20,TATGGCTCTTTTCGGCCGTGTAGGTGGTGGTATTTATACACGGAGTCACCTAGTGCAG,9010 fluorescence intensity (a.u.)
21,GGAGGAGAGGGGAGGGGTGCGTTTTGAGACTTAGAAAAAACGGAGTCACCTAGTGCAG,10000 fluorescence intensity (a.u.)

row,Sequence,binding signal
1,TCCCGCCGGCCGCCCAGATCCAACGGCTCACATCCCATCCCGGAGTCACCTAGTGCAG,8630 fluorescence intensity (a.u.)
2,TACTTAATCTGATATTATCTAGCTATTTTACATGTTATTTCGGAGTCACCTAGTGCAG,8160 fluorescence intensity (a.u.)
3,GTCACTCTTTCACTCTCACTCTTTCACTTAACGACTTAGGCGGAGTCACCTAGTGCAG,9070 fluorescence intensity (a.u.)
4,TCCATTTCCTTGTTTGGTTGGGTGGATGAGAATGGATTGACGGAGTCACCTAGTGCAG,9010 fluorescence intensity (a.u.)
5,CGCCGAGCATTTTAAGTATCCTGTCTCTGTCTCCTCGCTTCGGAGTCACCTAGTGCAG,12000 fluorescence intensity (a.u.)
6,TAGTAGGGTTAGGGTTTTCGTGGTGGGCGCCGCCGCCATGCGGAGTCACCTAGTGCAG,9130 fluorescence intensity (a.u.)
7,TCAAAAAGTGGCGAGCCTTTTCCCCTCCGGTCTCCGCCTCCGGAGTCACCTAGTGCAG,15400 fluorescence intensity (a.u.)
8,ATGTTTGACTTGTCACTGTGCTAAAAATGCTTATATTTTTCGGAGTCACCTAGTGCAG,8220 fluorescence intensity (a.u.)
9,CTGTCTCGCGCCGCCACCGCCTACCCCTCGTTCAAAAAAACGGAGTCACCTAGTGCAG,11000 fluorescence intensity (a.u.)
10,AACAACCTTAACCTCACCCTTTTTTTCCCTTTTCCTTTTCCGGAGTCACCTAGTGCAG,11200 fluorescence intensity (a.u.)
11,ACACTTCAATCAACCACCCAACTCGCACCGCACCGGTTTTCGGAGTCACCTAGTGCAG,10200 fluorescence intensity (a.u.)
12,CTTCGTCCACTAGCTATTTTTTTTTGTCTTAAATTATTTGCGGAGTCACCTAGTGCAG,8360 fluorescence intensity (a.u.)
13,GATTCTGCCAATGGTTGCTGCACCATCTCACACACACCACCGGAGTCACCTAGTGCAG,9610 fluorescence intensity (a.u.)
14,AATATTTTTTTTTACTGTTTTCACTTTGACCATTAATATTCGGAGTCACCTAGTGCAG,9790 fluorescence intensity (a.u.)
15,CGCAATATATCCATTTTATATTCTTATTCTTTCTCATCCTCGGAGTCACCTAGTGCAG,9190 fluorescence intensity (a.u.)
16,CCTCCTTGTTATCGCCGACGCCACAGCAGCCGCGGGAGGTCGGAGTCACCTAGTGCAG,8360 fluorescence intensity (a.u.)
17,GGATTGCCTCTAACACCACATCAGTTGACACACAAGGTTCCGGAGTCACCTAGTGCAG,9040 fluorescence intensity (a.u.)
18,TCCATCATCAACAAATGTTTACCGTAACATCATATTGTCACGGAGTCACCTAGTGCAG,8340 fluorescence intensity (a.u.)
19,TTGTACTACCATTACCTATTGTGCTTGTCATATTTAGAGGCGGAGTCACCTAGTGCAG,8120 fluorescence intensity (a.u.)
20,TTTTGTATGTTTTATTTTTTGACATTGTATTGTCGCTCAACGGAGTCACCTAGTGCAG,12100 fluorescence intensity (a.u.)
21,GTGCTGGCTTATTTCATGTATATTGTGATGGACTCTTTTTCGGAGTCACCTAGTGCAG,8200 fluorescence intensity (a.u.)

row,Sequence,binding signal
1,TCTATTTTCATCGCCACTATACCTCCGGCCCACGGACGCGCGGAGTCACCTAGTGCAG,8230 fluorescence intensity (a.u.)
2,CACTACGTTTCGGTTTTGACCATTTTCCCAATTTCTATAGCGGAGTCACCTAGTGCAG,8960 fluorescence intensity (a.u.)
3,GGTCTCTCTCTTCGTCTCTCCGTCTCTCGTTCTCTCCTCTCGGAGTCACCTAGTGCAG,8770 fluorescence intensity (a.u.)
4,GATGTCTGCCTTTAGTTGAGTATTTCATGAGAAGATATTACGGAGTCACCTAGTGCAG,9320 fluorescence intensity (a.u.)
5,TCCCGCATCTCGCGCCGCCGCCCCTCCACCGCATCCACGCCGGAGTCACCTAGTGCAG,11300 fluorescence intensity (a.u.)
6,GATCCCATTTCGGCTTTTTATTATCCAAATCCCACGGAAGCGGAGTCACCTAGTGCAG,8860 fluorescence intensity (a.u.)
7,CGTTGGACATGGAAACCGGGTTTGTCTTTTTTTTTTTAACCGGAGTCACCTAGTGCAG,8290 fluorescence intensity (a.u.)
8,TGCTTCTTGGACATCGCATCATATTTAAGCATGTTTTCCTCGGAGTCACCTAGTGCAG,10500 fluorescence intensity (a.u.)
9,CAGGTTCTCTTTATCCGCCGCTGCTTCTGAATTTTTGCCCCGGAGTCACCTAGTGCAG,8400 fluorescence intensity (a.u.)
10,AAAAGTATAGTGTGCCTGGTGGGGTGTTCCCATTAACGATCGGAGTCACCTAGTGCAG,9480 fluorescence intensity (a.u.)
11,GCGGCGGCGGCGCGAGGTTGACGACGACCCTGTCAGCGGGCGGAGTCACCTAGTGCAG,8850 fluorescence intensity (a.u.)
12,CTCATAGTCATAGTTACTGATTTGTTTGCTCATAGTCATACGGAGTCACCTAGTGCAG,13900 fluorescence intensity (a.u.)
13,GGTTTTAGCTGACGTGGCGCCTACGTGACAGTGTTGACCCCGGAGTCACCTAGTGCAG,8330 fluorescence intensity (a.u.)
14,ATCTCTAAACACCAAATTTGACACCGATCCACGTGCACACCGGAGTCACCTAGTGCAG,8620 fluorescence intensity (a.u.)
15,ATATATATAGTACGTACTAAGATCTTTCTTTTTTCATCACCGGAGTCACCTAGTGCAG,9500 fluorescence intensity (a.u.)
16,CACAATACTGTCTCACTCAGCTTTTATTGACCATATGCTCCGGAGTCACCTAGTGCAG,10500 fluorescence intensity (a.u.)
17,TCTCCCTCATTCGGCGTGCCTCCGCTCCTCTCCTGCGCGCCGGAGTCACCTAGTGCAG,8110 fluorescence intensity (a.u.)
18,GTTATTTTTTTAGCCTATATGTAATACTTCAGATGTTCAACGGAGTCACCTAGTGCAG,8080 fluorescence intensity (a.u.)
19,GTCTCACCGGAGCTCCGCCGCCGCCGCCGCCGTTTTCTCCCGGAGTCACCTAGTGCAG,25700 fluorescence intensity (a.u.)
20,GATTTCGTCACGCCAAAGCCGTGACAGGCTGATTGCTACCCGGAGTCACCTAGTGCAG,9100 fluorescence intensity (a.u.)
21,ATTTCCTTATATATATTCTTCTTCTTTTGCGATCACATGCCGGAGTCACCTAGTGCAG,9050 fluorescence intensity (a.u.)

# Reformatted bar-delimited: entries from further up.
row | Sequence | binding signal
16 | CACAATACTGTCTCACTCAGCTTTTATTGACCATATGCTCCGGAGTCACCTAGTGCAG | 10500 fluorescence intensity (a.u.)
17 | TCTCCCTCATTCGGCGTGCCTCCGCTCCTCTCCTGCGCGCCGGAGTCACCTAGTGCAG | 8110 fluorescence intensity (a.u.)
